Data published in patent US7385395B2, “Apparatus for preparing a solution of a hyperpolarized noble gas for NMR and MRI analysis” (priority 1996, dated 2008).

Test: 129Xe-1H SPINOE cross-relaxation (xenon coupling/binding to molecules in solution)

## OC[C@H]1O[C@@H]2O[C@H]3[C@H](O)[C@@H](O)[C@@H](O[C@H]4[C@H](O)[C@@H](O)[C@@H](O[C@H]5[C@H](O)[C@@H](O)[C@@H](O[C@H]6[C@H](O)[C@@H](O)[C@@H](O[C@H]7[C@H](O)[C@@H](O)[C@@H](O[C@H]1[C@H](O)[C@H]2O)O[C@@H]7CO)O[C@@H]6CO)O[C@@H]5CO)O[C@@H]4CO)O[C@@H]3CO [α-cyclodextrin]
SPINOE with laser-polarized xenon, α-cyclodextrin in perdeuterated DMSO
  ratio of the cross-relaxation rates of α-cyclodextrin and p-nitrotoluene: approximately 100

## OC[C@H]1O[C@@H]2O[C@H]3[C@H](O)[C@@H](O)[C@@H](O[C@H]4[C@H](O)[C@@H](O)[C@@H](O[C@H]5[C@H](O)[C@@H](O)[C@@H](O[C@H]6[C@H](O)[C@@H](O)[C@@H](O[C@H]7[C@H](O)[C@@H](O)[C@@H](O[C@H]8[C@H](O)[C@@H](O)[C@@H](O[C@H]1[C@H](O)[C@H]2O)O[C@@H]8CO)O[C@@H]7CO)O[C@@H]6CO)O[C@@H]5CO)O[C@@H]4CO)O[C@@H]3CO [β-cyclodextrin]
SPINOE
  xenon coupling constants relative to α-cyclodextrin: two orders of magnitude smaller
